{
  "source": "paper PMC4890791",
  "molecular_target": "T1, V. alginolyticus RpoE (sigma factor E) (V. alginolyticus)",
  "T1 sequence": "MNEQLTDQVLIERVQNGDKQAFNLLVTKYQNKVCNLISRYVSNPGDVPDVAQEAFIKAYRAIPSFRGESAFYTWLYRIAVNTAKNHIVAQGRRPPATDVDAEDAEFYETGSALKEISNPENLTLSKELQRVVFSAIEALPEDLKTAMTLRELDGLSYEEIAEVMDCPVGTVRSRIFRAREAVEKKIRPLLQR",
  "experiment": "two-hybrid; bacterial two-hybrid system; read out qualitatively on X-gal plate and quantitatively by β-galactosidase activity",
  "note": "Results are given in words; binding and its absence hold for the method and conditions named. A result given as binding can be weak or reduced; the word gives no strength.",
  "data": [
    {"substance": "V. alginolyticus RseA (anti-sigma factor)", "values": [
      {"measurement": "binding", "value": "binds"}
    ]}
  ]
}
